Reference: publication PMC10163288
This is one part of the list.

B1: il2ra_site1_2b5i_normal_mot_HHH_b2_04910_000000118_0001_1_19_H_._HHH_b1_07445_0001_0000100004_0000001_0_af2pred_dldesign_0_af2pred (protein)
chain: SSSSSKGKELRELVKKADKLFQEGKPEEAKKLLEEALELAKELGSTLWVKYLESMLKQLESSSSS
B2: il2ra_site2_2erj_sap_17_mot_HHH_b2_05264_af2_000000057_0001_44_57_H_._HHH_b2_06405_0001_0000200023_0000001_0_0001 (protein)
chain: SSSSEEERIEELYELIEELLKRGDVREVNKVLTEILRLVEEIGDPEVHKLAWEALRLSVERHSSS
B3: il2ra_site1_2b5i_sap_10_mot_HHH_b1_00095_000000042_0001_1_14_H_._HHH_b2_06882_af2_0001_0000100002_0000001_0_0001_af2pred_dldesign_0_af2pred (protein)
chain: SSPLLEFARKLEEKIILAEEQENAELAQEALDEAEKRLKEHPNDKLIKYIAEKAKEVLKELLESS
B4: il2ra_site2_2erj_sap_19_mot_HHH_b1_08162_af2_000000254_0001_40_56_H_._HHH_b1_03799_0001_0000100002_0000001_0_0001 (protein)
chain: SSSSDRLHELYELANELTRLVAEGDEEKVEEVAQEVKKLAEELDSPNAEEIVENLERLLDSSSSS
B5: il2ra_site2_2erj_normal_mot_HHH_b1_05749_af2_000000086_0001_23_39_H_._HHH_b2_04008_0001_0000400022_0000001_0 (protein)
chain: SSSSDKEESERALRIVYEIASKFGLDHELAHHLAEIAYELLEQGVSEEELREILEEFAEEYSSSS
B6: il2ra_site2_3nfp_sap_19_mot_HHH_b1_06589_000000230_0001_37_50_H_._HHH_b2_03432_0001_0000100006_0000001_0_0001 (protein)
chain: SSSSSSKAEEYVEAALELAKRTPDEEIRERHLELARLAAESQNDPELERLVEEVKEELGSSSSSS
B7: il2ra_site2_2erj_sap_18_mot_HHH_b1_04373_af2_000000118_0001_18_33_H_._HHH_b1_03962_0001_0000200008_0000001_1_0001 (protein)
chain: SSSSTEETREALEAAAEKDAKKDPEKARLYLELAERFAKRSGDEEALERIEELLEELREGSSSSS
B8: il2ra_site2_2erj_sap_20_mot_HHH_b1_06364_af2_000000268_0001_41_57_H_._HHH_b1_06576_0001_0000800021_0000001_0_0001_af2pred_0001_af2pred (protein)
chain: SSSSSEEEEVEKLLEEVKRLEKEGDEERAKKVLFEAALLALEINNEELEKEIERLAKELRSSSSS
B9: il2ra_site1_3nfp_sap_13_mot_HHH_b1_01159_af2_000000107_0001_1_20_H_._HHH_b2_04217_0001_0000600032_0000001_0_0001_af2pred_0001_af2pred (protein)
chain: SSSSDALREVLELIKEAREAFKNGNPEEAKKILEEALKIAEERNSPHLRRFLEATLRLIRSSSSS
B10: il2ra_site1_2b5i_normal_mot_HHH_b1_00095_000000044_0001_1_14_H_._HHH_eva_0532_0001_0000100001_0000001_0_af2pred_dldesign_0_af2pred (protein)
chain: SSSSSSAARRAIEEAIEEAEEAGDEEAVAELRELLAQLDAGKISPREALLRANALLKELESSSSS
B11: il2ra_site2_3nfp_normal_mot_HHH_b1_05627_af2_000000038_0001_43_56_H_._HHH_b1_04509_0001_0000700040_0000001_0 (protein)
chain: SSSSDKAERYLRVALLLLRRAAEHNNPELVRSHAEAAAALAEALRDPEVLREIEEILEELSSSSS
B12: il2ra_site2_3nfp_normal_mot_HHH_b2_07186_000000286_0001_42_55_H_._09c2afe89fb4cbada1505b3a46965288_0001_af2_0001_0000300039_0000001_0 (protein)
chain: GPEEKLEELEERAGDPRFAIYALLQELILELGNPREARELLREVIEKLFNVPPEEAERLLREASQ
B13: il2ra_site1_2b5i_normal_mot_HHH_b1_02271_000000068_0001_1_16_H_._HHH_b2_04832_af2_0001_0000100004_0000001_1_af2pred_dldesign_0_af2pred (protein)
chain: SSSSSEEEVRRLLEEARRLLEAGKRREALKLLEEAHKLAGALENEELIAEVEALFKEASKSSSSS
B14: il2ra_site1_1z92_normal_mot_01209686ea234b34325f918445e6eade_0001_af2_000000154_0001_18_33_H_._92259d4fafaaaac0c6a0b9836689a3e9_0001_0001_0000100010_0000001_0_a … (protein)
chain: SEALEKSIKQAEEMGIPPRQVVRAVLRNLERDLGDPEEAKELLEEVLEKLLGDPEEARELVERAE
B15: il2ra_site2_3nfp_sap_24_mot_HHH_b2_06039_000000024_0001_38_52_H_._ems_3hC_444_0001_af2_0001_0000300021_0000001_0_0001 (protein)
chain: SSSSSDDHEVYERVVELLKEANKIDDPEEREEVLREAEELAREARSEVLRRSVEDVAKANSSSSS
B16: il2ra_site2_2erj_normal_mot_HHH_b1_04373_af2_000000118_0001_18_33_H_._HHH_b2_05629_af2_0001_0000100008_0000001_0 (protein)
chain: SSSSSDVEEEVRRLLEEAEELREEGDLEEVYRLAVEALHLASKNQDQELIELVAKVAEELSSSSS
B17: il2ra_site2_3nfp_sap_29_mot_HHH_b2_03587_000000143_0001_18_35_H_._HHH_b2_00779_af2_0001_0000400020_0000001_0_0001 (protein)
chain: SSSSDERAKKIVENALRALEIALRRGDEELVELTEEYLRAAILLHNDEEAEELLEELRRKYSSSS
B18: il2ra_site2_3nfp_sap_19_mot_HHH_b1_06699_000000048_0001_23_40_H_._ems_3hC_59_0001_0000100006_0000001_0_0001_af2pred_0001_af2pred (protein)
chain: SSSSSDAAEEAEELAEEARHVEDPEERERILRKAAELAYRARDHEVFAEIHLVIEELERSSSSSS

These binders were tested against il2ra, P01589 (assay: yeast display titration).
For B1, the “apparent Kd” value was “inactive: no binding seen”. B2 was tested, and the “apparent Kd” value was “inactive: no binding seen”. In the case of B3, the “apparent Kd” value is reported as “inactive: no binding seen”. For B4, the “apparent Kd” value was “inactive: no binding seen”. With B5 the “apparent Kd” value was “inactive: no binding seen”. In the case of B6, the “apparent Kd” value is reported as “inactive: no binding seen”. For B7, the “apparent Kd” value was “inactive: no binding seen”. With B8 the “apparent Kd” value was “inactive: no binding seen”. In the case of B9, the “apparent Kd” value is reported as “inactive: no binding seen”. B10 was tested, and the “apparent Kd” value was “inactive: no binding seen”. B11 was tested, and the “apparent Kd” value was “inactive: no binding seen”. For B12, the “apparent Kd” value was “inactive: no binding seen”. In the case of B13, the “apparent Kd” value is reported as “inactive: no binding seen”. For B14, the “apparent Kd” value was “inactive: no binding seen”. For B15, the “apparent Kd” value was “inactive: no binding seen”. For B16, the “apparent Kd” value was “inactive: no binding seen”. In the case of B17, the “apparent Kd” value is reported as “inactive: no binding seen”. For B18, the “apparent Kd” value was “inactive: no binding seen”.
